Assay: Detection limit in air / quantitation limit in water by laboratory gas chromatograph
Details: for LOQ in water: extrapolated quantitation limit in water, signal-to-noise ratio multiplied by ten; for LOD in air: measured detection limit in air, three times signal-to-noise ratio, laboratory gas chromatograph

**Q.** What does the source list for ClC(Cl)C(Cl)Cl [1,1,2,2-TETRACHLOROETHANE]?
**A.** LOQ in water: 17 ng/mL; LOD in air: 10 ppb - v/v

**Q.** Which LOQ in water does the source give for ClCC(Cl)Cl [1,1,2-TRICHLOROETHANE] here?
**A.** 13 ng/mL

**Q.** And the LOD in air?
**A.** 15 ppb - v/v

**Q.** For CC(Cl)(Cl)Cl [1,1,-TRICHLOROETHANE], which LOQ in water is on record?
**A.** 1.2 ng/mL

**Q.** And the LOD in air?
**A.** 2.5 ppb - v/v

**Q.** With CC(Cl)Cl [1,1-DICHLOROETHANE] as the compound, how does the LOQ in water read?
**A.** 130 ng/mL

**Q.** And the LOD in air?
**A.** 270 ppb - v/v

**Q.** With Clc1ccccc1Cl [1,2-DICHLOROBENZENE] as the compound, how does the LOQ in water read?
**A.** 170 ng/mL

**Q.** And the LOD in air?
**A.** 90 ppb - v/v

**Q.** Which LOQ in water does the source give for ClCCCl [1,2-DICHLOROETHANE] here?
**A.** 37 ng/mL

**Q.** And the LOD in air?
**A.** 76 ppb - v/v

**Q.** What does the source list for CC(Cl)CCl (stereo not drawn) [1,2-DICHLOROPROPANE]?
**A.** LOQ in water: 54 ng/mL; LOD in air: 120 ppb - v/v

**Q.** Which LOQ in water does the source give for ClC(Cl)Br [BROMODICHLOROMETHANE] here?
**A.** 1.2 ng/mL

**Q.** What about the LOD in air of the same compound?
**A.** 3.0 ppb - v/v

**Q.** What does the source list for BrC(Br)Br [BROMOFORM]?
**A.** LOQ in water: 16 ng/mL; LOD in air: 9.4 ppb - v/v

**Q.** What does the source list for ClC(Cl)(Cl)Cl [CARBON TETRACHLORIDE]?
**A.** LOQ in water: 0.23 ng/mL; LOD in air: 0.54 ppb - v/v

**Q.** With Clc1ccccc1 [CHLOROBENZENE] as the compound, how does the LOQ in water read?
**A.** 260 ng/mL

**Q.** What about the LOD in air of the same compound?
**A.** 310 ppb - v/v

**Q.** Which LOQ in water does the source give for ClC(Br)Br [CHLORODIBROMOMETHANE] here?
**A.** 4.2 ng/mL

**Q.** And the LOD in air?
**A.** 4.6 ppb - v/v

**Q.** Which LOQ in water does the source give for ClC(Cl)Cl [CHLOROFORM] here?
**A.** 1.4 ng/mL

**Q.** And the LOD in air?
**A.** 2.7 ppb - v/v

**Q.** Which LOQ in water does the source give for CBr [METHYL BROMIDE] here?
**A.** 6.0 ng/mL

**Q.** And the LOD in air?
**A.** 137 ppb - v/v

**Q.** What does the source list for ClCCl [METHYLENE CHLORIDE]?
**A.** LOQ in water: 9.2 ng/mL; LOD in air: 22 ppb - v/v

**Q.** What does the source list for ClC(Cl)=C(Cl)Cl [PERCHLOROETHYLENE]?
**A.** LOQ in water: 0.48 ng/mL; LOD in air: 0.69 ppb - v/v

**Q.** Which LOQ in water does the source give for ClC=C(Cl)Cl [TRICHLOROETHYLENE] here?
**A.** 0.94 ng/mL

**Q.** What about the LOD in air of the same compound?
**A.** 2.8 ppb - v/v

**Q.** Which LOQ in water does the source give for C=C(Cl)Cl [[…]] here?
**A.** 1.9 ng/mL

**Q.** What about the LOD in air of the same compound?
**A.** 6.8 ppb - v/v

**Q.** Which results are given for Cl/C=C\CCl [c-1,3 DICHLOROPROPENE]?
**A.** LOQ in water: 28 ng/mL; LOD in air: 30 ppb - v/v

**Q.** Which LOQ in water does the source give for Cl/C=C/Cl [t-1,2-DICHLOROETHYLENE] here?
**A.** 42 ng/mL

**Q.** And the LOD in air?
**A.** 200 ppb - v/v

**Q.** For Cl/C=C/CCl [t-1,3-DICHLOROPROPENE], which LOQ in water is on record?
**A.** 12 ng/mL

**Q.** What about the LOD in air of the same compound?
**A.** 26 ppb - v/v

— US5235843A, “Method and apparatus for analyzing volatile chemical components in a liquid” (The Dow Chemical Company, priority 1991, dated 1993)
